Assay results published in paper PMC4339892, “Neuropilin 1 is an entry factor that promotes EBV infection of nasopharyngeal epithelial cells” (Nature Communications, 2015).
Results are given in words; binding and its absence hold for the method and conditions named. For some assays here: Binding seen in cells or lysates may run through a third protein. Some entries that bind do so weakly or less than the wild type.

Sequences of proteins named here, by UniProt entry; tags and fusion partners are left off. A change or cut given only in a name is not applied to a line headed by its entry. A line that says so, or that is headed by a name, gives the form on record, which may keep a tag or linker. Residues count along the entry.
UniProt O14786: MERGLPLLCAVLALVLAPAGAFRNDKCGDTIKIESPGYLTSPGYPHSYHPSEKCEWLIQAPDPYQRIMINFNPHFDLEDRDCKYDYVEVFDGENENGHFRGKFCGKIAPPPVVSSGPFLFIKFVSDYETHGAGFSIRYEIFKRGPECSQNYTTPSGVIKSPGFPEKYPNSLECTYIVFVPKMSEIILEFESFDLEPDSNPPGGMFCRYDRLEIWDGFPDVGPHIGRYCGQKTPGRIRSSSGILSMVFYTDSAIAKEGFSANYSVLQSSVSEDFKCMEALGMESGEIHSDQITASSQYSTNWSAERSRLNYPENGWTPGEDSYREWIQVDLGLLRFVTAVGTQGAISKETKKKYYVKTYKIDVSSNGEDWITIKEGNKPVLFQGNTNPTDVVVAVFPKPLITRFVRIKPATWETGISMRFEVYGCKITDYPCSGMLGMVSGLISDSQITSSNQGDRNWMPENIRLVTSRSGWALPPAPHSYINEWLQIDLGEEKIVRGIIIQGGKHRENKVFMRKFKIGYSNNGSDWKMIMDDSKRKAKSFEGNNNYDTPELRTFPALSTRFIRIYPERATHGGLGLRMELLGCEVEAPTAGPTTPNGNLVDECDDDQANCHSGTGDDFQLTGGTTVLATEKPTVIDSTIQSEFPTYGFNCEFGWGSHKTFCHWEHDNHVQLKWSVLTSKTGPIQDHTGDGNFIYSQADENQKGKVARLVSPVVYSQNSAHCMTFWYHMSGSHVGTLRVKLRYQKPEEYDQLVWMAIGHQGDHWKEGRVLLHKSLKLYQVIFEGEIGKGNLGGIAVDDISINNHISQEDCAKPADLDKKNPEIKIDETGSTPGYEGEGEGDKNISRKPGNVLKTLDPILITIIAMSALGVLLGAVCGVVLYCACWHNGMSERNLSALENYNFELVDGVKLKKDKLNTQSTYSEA
NRP1-EGFP (EGFP-tagged neuropilin 1): residues 22-923 of O14786
soluble NRP1^30–636 (sNRP1^30–636): residues 30-636 of O14786
GST-NRP2^ABC (soluble extracellular ABC domain of NRP2) (O60462-3, form named): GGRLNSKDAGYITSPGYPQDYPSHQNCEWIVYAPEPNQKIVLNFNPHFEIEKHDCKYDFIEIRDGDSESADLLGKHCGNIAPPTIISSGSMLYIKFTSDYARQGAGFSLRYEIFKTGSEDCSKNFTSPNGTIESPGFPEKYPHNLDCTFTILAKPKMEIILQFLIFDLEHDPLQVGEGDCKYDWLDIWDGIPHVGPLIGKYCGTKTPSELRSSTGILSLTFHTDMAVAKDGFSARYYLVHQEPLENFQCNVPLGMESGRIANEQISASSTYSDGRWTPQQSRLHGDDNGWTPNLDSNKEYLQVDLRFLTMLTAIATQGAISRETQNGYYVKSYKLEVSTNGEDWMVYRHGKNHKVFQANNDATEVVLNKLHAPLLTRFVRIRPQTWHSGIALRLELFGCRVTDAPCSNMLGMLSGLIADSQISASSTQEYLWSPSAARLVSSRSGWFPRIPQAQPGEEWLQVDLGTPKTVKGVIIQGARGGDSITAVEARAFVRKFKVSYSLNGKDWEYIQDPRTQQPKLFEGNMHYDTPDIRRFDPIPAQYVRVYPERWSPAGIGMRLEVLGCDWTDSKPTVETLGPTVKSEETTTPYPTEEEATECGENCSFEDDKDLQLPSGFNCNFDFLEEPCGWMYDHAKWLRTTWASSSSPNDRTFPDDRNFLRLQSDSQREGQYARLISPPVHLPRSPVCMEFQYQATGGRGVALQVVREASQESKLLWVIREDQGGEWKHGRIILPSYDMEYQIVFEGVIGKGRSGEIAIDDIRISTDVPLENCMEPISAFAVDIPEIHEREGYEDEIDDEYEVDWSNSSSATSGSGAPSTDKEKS
NRP2 (neuropilin 2) expressed in HEK-293FT cells for the co-immunoprecipitation of Figure 3e (O60462-3, form named): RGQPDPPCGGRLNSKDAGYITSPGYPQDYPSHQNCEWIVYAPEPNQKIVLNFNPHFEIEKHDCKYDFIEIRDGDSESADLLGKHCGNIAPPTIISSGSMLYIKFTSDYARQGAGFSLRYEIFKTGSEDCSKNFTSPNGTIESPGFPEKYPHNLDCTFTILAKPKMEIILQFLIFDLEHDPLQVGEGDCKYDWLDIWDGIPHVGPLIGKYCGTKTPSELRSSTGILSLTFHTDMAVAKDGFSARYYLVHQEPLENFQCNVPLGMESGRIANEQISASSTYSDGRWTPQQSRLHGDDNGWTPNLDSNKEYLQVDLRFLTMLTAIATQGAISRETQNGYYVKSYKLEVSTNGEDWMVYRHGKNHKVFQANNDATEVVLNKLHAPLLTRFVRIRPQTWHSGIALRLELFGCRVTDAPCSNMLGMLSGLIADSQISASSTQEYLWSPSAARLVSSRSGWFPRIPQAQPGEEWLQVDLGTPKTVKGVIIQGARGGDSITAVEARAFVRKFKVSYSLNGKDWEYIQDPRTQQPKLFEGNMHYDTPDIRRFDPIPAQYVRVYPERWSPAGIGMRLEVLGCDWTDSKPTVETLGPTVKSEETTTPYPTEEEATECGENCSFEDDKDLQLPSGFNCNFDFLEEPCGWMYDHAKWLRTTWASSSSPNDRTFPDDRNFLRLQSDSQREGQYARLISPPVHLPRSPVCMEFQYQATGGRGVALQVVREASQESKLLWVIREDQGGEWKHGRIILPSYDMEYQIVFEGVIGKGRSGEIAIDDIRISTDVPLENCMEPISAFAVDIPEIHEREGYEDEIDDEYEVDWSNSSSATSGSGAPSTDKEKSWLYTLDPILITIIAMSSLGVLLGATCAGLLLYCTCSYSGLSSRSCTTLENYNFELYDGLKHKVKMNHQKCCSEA

Legend:
[1] = biological target: NRP1-EGFP (EGFP-tagged neuropilin 1) (human) (UniProt O14786); experiment: co-IP; HEK-293FT cells co-transfected with pEGFP-NRP1 and pCEP-FLAG-gB^23–431 for 36 h; RIPA lysate; IP with anti-FLAG or anti-GFP antibody, protein G-Sepharose, immunoblot
[2] = biological target: FLAG-gB^23–431 (EBV glycoprotein B residues 23-431, CendR motif exposed) (Epstein-Barr virus) (UniProt P03188); experiment: ELISA; plates coated with 200 ng purified FLAG-gB^23–431, various concentrations of GST-NRP1 or GST-NRP2 for 2 h at RT, rabbit anti-GST and HRP-conjugated secondary antibody; apparent affinity constant; both purified
[3] = biological target: FLAG-gB^23–431 (EBV glycoprotein B residues 23-431, CendR motif exposed) (Epstein-Barr virus) (UniProt P03188); experiment: co-IP; HEK-293FT cells co-transfected with pEGFP-NRP1 and pCEP-FLAG-gB^23–431 for 36 h; RIPA lysate; IP with anti-FLAG or anti-GFP antibody, protein G-Sepharose, immunoblot
[4] = biological target: FLAG-gB^23–431 (EBV glycoprotein B residues 23-431, CendR motif exposed) (Epstein-Barr virus) (UniProt P03188); experiment: co-IP; HEK-293FT cells transfected with the indicated doses of expression vectors (gB, NRP1, NRP2) for 36 h; lysate IP with anti-FLAG, immunoblot with anti-GFP, anti-HA or anti-FLAG
[5] = biological target: FLAG-gB^23–427 (CendR motif-deletion mutant of gB) (Epstein-Barr virus) (UniProt P03188); experiment: pull-down; FLAG-gB fragments precipitated from HEK-293FT lysates on anti-FLAG (M2) Sepharose beads, incubated with in vitro translated sNRP1^30-636 overnight at 4 °C, washed in RIPA buffer, immunoblot; only the target purified
[6] = biological target: FLAG-gB^89–427 (gB lacking 23-88 and the CendR motif 428-431) (Epstein-Barr virus) (UniProt P03188); experiment: as above
[7] = biological target: FLAG-gB^23–431 (EBV glycoprotein B residues 23-431, CendR motif exposed) (Epstein-Barr virus) (UniProt P03188); experiment: as above

FLAG-gB^23–431 (EBV glycoprotein B residues 23-431, CendR motif exposed) (from UniProt P03188 23-431) (domain or fragment)
binding [1]: binds

GST-NRP2^ABC (soluble extracellular ABC domain of NRP2) (from UniProt O60462-3 29-852) (domain or fragment)
binding [2]: binds

NRP1-EGFP (EGFP-tagged neuropilin 1) (from UniProt O14786-1 22-923) (receptor)
binding [3]: binds
binding [4]: binds

NRP2 (neuropilin 2) expressed in HEK-293FT cells for the co-immunoprecipitation of Figure 3e (from UniProt O60462-3 21-926) (receptor)
binding [4]: binds

soluble NRP1^30–636 (sNRP1^30–636) (from UniProt O14786-1 30-636) (domain or fragment)
binding [5]: binds
binding [6]: binds weakly
binding [7]: binds
